Results reported in PubChem BioAssay AID504444 (National Center for Advancing Translational Sciences (NCATS), 2011).
About 7,500 (2.1%) of roughly 360,000 compounds were called active. Inconclusive results, whose numbers are uncertain, are shown with a selection of clear calls. The call rests on the fitted dose curve; in most records, active means well fitted inhibition curve with a large enough effect; inconclusive means small, poorly fitted or top-dose-only effect, or effect the other way; inactive means flat fitted curve, though single readings scatter. Where the call is inconclusive, the potency comes from a doubtful curve fit.

Experiment: Nrf2 qHTS screen for inhibitors; further: nearly all actives have a fitted effect of over 60% in size
Settings: A549 ARE-Fluc reporter, luciferase luminescence, 18-24 h; series mostly up to 46 µM
Method in brief: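 Cells were seeded and rested 2 h, then exposed to compounds for 18-24 h. CellTiter-Fluor was read first as a viability measure. BugLite was added 15 min before the final luminescent read of ARE-luciferase activity in A549 cells.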
Potency means the concentration at half of the fitted maximal effect.

| Compound | Potency |
| --- | --- |
| Cc1ccc(S(=O)(=O)N(CC(=O)NCCSc2ccc(Cl)cc2)c2ccccc2C)cc1 | inconclusive: 18.4 µM [falling, single point] |
| CC(=O)Nc1ccccc1C(=O)OCc1cccc(F)c1 | inconclusive: 16.4 µM [activator, partial curve] |
| Cc1cc(C)cc(NC(=O)Cn2cc(C(=O)c3cccs3)c3ccccc32)c1 | active: 16.4 µM |
| COC(=O)[C@@H]1C[C@H]1[C@@H](NP(=O)(c1ccccc1)c1ccccc1)c1ccccc1 | inconclusive: 16.4 µM [falling, partial curve, poor fit] |
| Cc1nn(Cc2ccccc2Cl)c(C)c1C(=O)OCC(=O)NC1CCCC(C)C1C (stereo not drawn) | inconclusive: 25.9 µM [falling, single point] |
| COC(=O)C1C(=O)C=C(Nc2ccc(F)cc2F)CC1c1ccccc1 (stereo not drawn) | inconclusive: 18.4 µM [activator, single point] |
| O=C1CC=C2C3CC4N(CCC45c4cc(O)c(O)cc4N1C25)CC3=CCBr (stereo not drawn) | inactive |
| CCOC(=O)C(O)(c1ccc(N(CC)S(=O)(=O)c2ccc(C)cc2)cc1)C(F)(F)F (stereo not drawn) | inconclusive: 29.1 µM [falling, single point] |
| CC1(C)c2[nH]c3ccccc3c2C[C@H]2C(=O)N(Cc3ccccc3F)C(=O)N21 | active: 23.1 µM |
| C=CCn1c(O)c(C=Nc2ccc(N(CC)CC)cc2)c(=O)[nH]c1=O | active: 3.26 µM |
| O=C(Nc1ccc(Oc2ccc(Cl)cc2)c(Cl)c1)c1cc(I)cc(I)c1O | inconclusive: 29.1 µM [falling, single point] |
| COc1ccc(C(=O)NCCn2cc(SCc3ccc(C(F)(F)F)cc3)c3ccccc32)cc1OC | active: 18.4 µM |
| COC(=O)c1ccc(COc2cc(C)cc3oc(=O)c4c(c23)CCCC4)o1 | inconclusive: 5.17 µM [activator, single point] |
| Cc1ccccc1-n1c(/C=C/c2ccc(N(C)C)cc2)nc2ccccc2c1=O | inconclusive: 11.6 µM [falling, partial curve, poor fit] |
| CCCn1cc(CN2CCCC(C(=O)c3cccc(OC)c3)C2)c(C)n1 (stereo not drawn) | inconclusive: 29.1 µM [falling, single point] |
| O=C1Nc2cc(C(=O)N3CCC4(CC3)OCCO4)ccc2S/C1=C\c1ccccc1 | inconclusive: 20.6 µM [falling, partial curve] |
| COC(=O)C1=C(c2ccc(F)cc2OCc2ccccc2)C[C@@H]2CC[C@H]1N2C(=O)NCCCOC(C)C | inconclusive: 20.6 µM [falling, single point] |
| COc1ccc(-c2nc(NC(=O)Cn3c(=O)oc4ccccc43)sc2C)cc1 | active: 18.4 µM |
| Cc1ccc(-n2ncc(C(=O)N3CCN(c4ccc(Cl)cc4)CC3)c2C2CCN(C(=O)OC(C)(C)C)CC2)c(C)c1 | active: 14.6 µM |
| CCOc1ccc(C(=O)N2CCC(c3noc(-c4ccc(S(=O)(=O)N5CCCC5)cc4)n3)CC2)cc1 | active: 14.6 µM |
| CNc1ccc2oc(C[C@H]3O[C@@]4(CC[C@H]3C)O[C@H]([C@H](C)C(=O)c3ccc[nH]3)[C@H](C)C[C@H]4C)nc2c1C(=O)O | active: 1.16 µM |
| CCCCCCN=C(C)c1c(O)n(Cc2ccccc2)c(=O)[nH]c1=O | inconclusive: 32.6 µM [falling, single point] |

Ordered by molar mass (falling): some entries from above

| Compound | Potency |
| --- | --- |
| O=C(Nc1ccc(Oc2ccc(Cl)cc2)c(Cl)c1)c1cc(I)cc(I)c1O | inconclusive: 29.1 µM [falling, single point] |
| CCOC(=O)C(O)(c1ccc(N(CC)S(=O)(=O)c2ccc(C)cc2)cc1)C(F)(F)F (stereo not drawn) | inconclusive: 29.1 µM [falling, single point] |
| C=CCn1c(O)c(C=Nc2ccc(N(CC)CC)cc2)c(=O)[nH]c1=O | active: 3.26 µM |

Additional compounds follow.

| Compound | Potency |
| --- | --- |
| CCN1CC2(COC(=O)c3ccccc3N)CCC(OC)C34C5CC6C(OC)CC(O)(C5C6OC)C(O)(C(OC)C23)C14 (stereo not drawn) | inactive |
| Cc1cc(C=C2C(=O)N(C)C(=S)N(C)C2=O)c(C)n1-c1cccnc1 | inactive |
| COc1ccc(OCC(=O)N2CCN(Cc3ccc(SC)cc3)CC2)cc1 | inconclusive: 20.6 µM [falling, single point] |
| CCOC(=O)c1c(-n2c(C)cc(/C=C3\C(=O)NC(=O)N(C)C3=O)c2C)sc2c1CCCC2 | inconclusive: 20.6 µM [falling, partial curve, poor fit] |
| CCOC(=O)Cc1csc(NC(=O)c2c(O)c3ccccc3n(CCC(C)C)c2=O)n1 | inconclusive: 29.1 µM [falling, single point] |
| N#Cc1c(/N=C/C2C(=O)NC(=S)NC2=O)sc2c1CCCC2 | inactive |
| CCC(=O)c1c(O)n(C2CCCCCC2)c(=O)[nH]c1=O | inconclusive: 29.1 µM [falling, single point] |
| O=C1NC(=O)N(c2ccc3c(c2)OCO3)C(=O)/C1=C/c1cccs1 | inactive |
| Cc1ccc(C[n+]2c(-c3ccc(C)cc3)cc(-c3ccc(C)cc3)cc2-c2ccc(C)cc2)cc1 | active: 5.17 µM |
| CCOc1ccc(Cn2c(=O)oc3ccc(C)cc32)cc1OC | inconclusive: 25.9 µM [falling, partial curve] |
| O=C(CCN1CCCCC1)Nc1ccc(Br)cc1C(=O)c1ccccc1 | inactive |
| CCn1nc(C)c(CN2CCCC(C(=O)c3cccc(OC(C)C)c3)C2)c1C (stereo not drawn) | active: 10.3 µM |
| COC(=O)CC1(Cc2ccccc2)C(=O)NC(=O)NC1=O | inactive |
| CCCCC1(CCCC)C(=O)NC(=Nc2cccc(C)c2)NC1=O | inconclusive: 20.6 µM [falling, single point] |
| Cc1cc(NC(=O)c2noc3c2CCCCC3)no1 | inconclusive: 13 µM [activator, partial curve, poor fit] |
| COC(=O)c1ccc(-c2nc(-c3ccc(Br)o3)no2)cc1 | inconclusive: 11.6 µM [activator, partial curve, poor fit] |
| CC1CCN(CC(=O)c2ccccc2Cl)CC1 | inconclusive: 29.1 µM [activator, single point] |
| COC(=O)C1=C(c2ccc(-c3ccccc3)c(F)c2)C[C@@H]2CC[C@H]1N2C(=O)N1CCc2cc(OC)c(OC)cc2C1 | active: 16.4 µM |
| COc1ccc(CCN(C)Cc2ccc(F)cc2F)cc1OC | inconclusive: 2.31 µM [falling, partial curve, poor fit] |
| CC/C(=N\NC(=O)c1ccccc1O)c1c(O)n(Cc2ccccc2)c(=O)[nH]c1=O | inactive |
| COC(=O)[C@]12OC[C@]34C([C@@H](O)[C@@H]1O)[C@]1(C)CC(=O)C(O)=C(C)[C@@H]1C[C@H]3OC(=O)[C@H](O)[C@@H]24 (stereo partly drawn) | active: 1.3 µM |
